The test is described as follows: qHTS Assay to Find Inhibitors of Chronic Active B-Cell Receptor Signaling. To be noted: ABC-DLBCL IkBa-CBG/CBR reporter, luminescence ratio (green luciferase fused to IkBa over red control in TMD8 lymphoma cells), 4 h. The method in brief: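 Compounds up to 46 uM were incubated four hours with TMD8 cells whose green CBG68 luciferase is fused to IkappaBalpha; red CBR luminescence normalised the signal, and concentration-effect curves were fitted to fusion, red and ratio data.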

The mark [1] stands for this setting: measured here: CBR red luminescence, cell number.
Setting [2] is: measured here: IkBa-CBG green luminescence.

As usually defined, the AC50 is the concentration giving half of the maximal activity seen.

The structures appear in SMILES notation. The list shows a part of the results. The main result of the screen is listed elsewhere. These columns were measured beside it and carry no call. The list favours compounds with an active or inconclusive main result. Potencies come from curve fits of mixed quality, noted in brackets.

Regarding `COc1ccc(CCC(C)NCCc2ccc(Cl)cc2Cl)cc1` (stereo unspecified), the AC50 under setting [1] is 20 µM [falling, single point].
Take `Cc1cc(C)n2nc(SCc3nc4ccccc4[nH]3)nc2n1`: under setting [1], the AC50 is 14.6 µM [falling, partial curve, poor fit].
With `Brc1ccc(Cn2c(-c3ccc(Br)o3)nc3ccccc32)o1`, the AC50 under setting [1] was 16.4 µM [falling, single point].
For the compound `CCNC(=S)Nc1ccc(Cl)cc1`, the AC50 under setting [1] is 13 µM [rising, partial curve, poor fit].
With `O=C(CNC(=O)c1n[nH]c2ccccc12)Nc1cc(Cl)ccc1Cl`, the AC50 under setting [1] was 5.8 µM [falling, single point].
As for `O=C(COc1ccc(Cl)cc1Cl)N/N=C/C1CC=CCC1` (stereo unspecified), the AC50 under setting [1] was 1.26 µM [rising, full curve, poor fit].
Consider `CCc1cc(=O)oc2c(C)c(OCC(=O)N3CCC(C(=O)O)CC3)ccc12`, for which the AC50 under setting [1] was 22.4 µM [falling, single point].
With `Cc1ccc(/C=C2\SC(=S)N(CCC(=O)NNC(=O)c3cccnc3)C2=O)cc1`, under setting [1], the AC50 is 7.31 µM [falling, partial curve].
For the compound `CCCn1c(N)c(N(CCOC)C(=O)CSCC(=O)Nc2ccc(C)cc2)c(=O)[nH]c1=O`, under setting [1], the AC50 was 1.16 µM [rising, full curve, poor fit].
As to `CCOC(=O)[C@H]1[C@H]2COc3ccccc3[C@@H]2N2C(=O)c3ccc(C)cc3NC(=O)[C@@]12C`, the AC50 under setting [1] was 20.6 µM [falling, single point].
For the compound `COc1ccc(NC(=S)N(Cc2cccnc2)Cc2cc3cc(OC)c(OC)cc3[nH]c2=O)cc1`, the AC50 under setting [1] was 25.1 µM [rising, single point].
Turning to `CN(C(=O)c1cccnc1)c1nnc(-c2ccccn2)s1`, the half-maximal activity concentration (AC50) under setting [1] is 0.146 µM [falling, full curve, poor fit].
Consider `CCNCC(=O)N1c2ccccc2CCc2ccc(NC(=O)OCC)cc21`, for which the half-maximal activity concentration (AC50) under setting [1] was 3.16 µM [rising, single point].
For `COc1ccc2c(c1)CC/C(=C\c1ccc(C)o1)C2=O`, under setting [1], the AC50 is 6.31 µM [rising, partial curve, poor fit].
On to `O=C(NCc1nc2ccccc2[nH]1)C1=C[C@@H](c2ccc(Br)cc2)C[C@@H](OCc2ccc(CO)cc2)O1`, for which the AC50 under setting [1] was 0.112 µM [falling, full curve, poor fit].
For `O=C(NCc1ccco1)c1ccccc1Nc1ccc(F)cc1`, the AC50 under setting [1] was 3.66 µM [rising, single point].
Regarding `O=C(NC1CCCCCC1)c1cc2ccccc2oc1=O`, under setting [1], the AC50 is 0.794 µM [falling, full curve, poor fit].
For the compound `Nc1ccccc1-c1nc2ccccc2s1`, the AC50 under setting [1] was 17.8 µM [rising, partial curve, poor fit].
In the case of `CCOCCn1c(SCc2cccc(C)c2)nc2c1c(=O)[nH]c(=O)n2C`, the AC50 under setting [1] was 20.6 µM [falling, single point].
Take `C=CC[C@@H](CC(=O)N[C@@H](CO)Cc1ccccc1)C(=O)NC[C@@H](OC(=O)[C@@H](CC=C)CC(=O)OC(C)(C)C)c1ccccc1`: under setting [1], the AC50 was 14.6 µM [rising, partial curve, poor fit].
As for `COc1cccc(Nc2nnc(SCN3C(=O)c4ccccc4C3=O)s2)c1`, the AC50 under setting [1] is 2.59 µM [rising, full curve].
Take `Cc1cc(C)c2c(c1)c1nnc(SCCN3CCCCC3)nc1n2C`: the AC50 under setting [2] was 17.8 µM [rising, partial curve, poor fit].
Take `O=c1c2ccccc2nc(-c2ccc(Cl)cc2Cl)n1CCCn1ccnc1`: the AC50 under setting [1] was 6.31 µM [rising, single point].
With `CCCCc1ccc(NC(=S)NCc2ccc(OC)cc2)cc1`, under setting [1], the AC50 was 35.5 µM [falling, single point].
Regarding `COc1ccc(CNC(=O)CCCOc2cc(=O)n(C)c3ccccc23)cc1`, the AC50 reads like this: under setting [1], 23.1 µM [rising, single point]; under setting [2], 23.1 µM [falling, single point].
On to `COc1ccc(C(=O)Nc2nnc(Cc3ccccc3)s2)c(OC)c1`, for which the AC50 under setting [1] is 11.2 µM [rising, partial curve].
With `CCOC(=O)C1(CC2CC2)CCN(Cc2cn(C)c3ccccc23)CC1`, under setting [1], the AC50 was 11.2 µM [falling, partial curve].
Regarding `O=C(Nc1cccc(-c2nc3ccccc3s2)c1)c1cc(-n2cnnc2)ccc1Cl`, the AC50 under setting [1] is 3.55 µM [falling, partial curve, poor fit].
As for `CCNC(=S)Nc1ccc(OC(F)(F)F)cc1`, under setting [1], the AC50 is 2.82 µM [rising, partial curve, poor fit].
As for `COc1cc(C(=O)Nc2cccc(-c3nnc(-c4ccco4)o3)c2)ccc1OC(C)=O`, the AC50 under setting [1] is 10 µM [falling, partial curve, poor fit].
With `O=C(NNC(=O)c1c(O)c2ccccc2[nH]c1=O)c1ccccc1Br`, under setting [1], the AC50 is 1.78 µM [falling, full curve].
For `CCN(C(=O)COC(=O)/C(C#N)=C/c1ccc(N(C)C)cc1)C1CCS(=O)(=O)C1` (stereo unspecified), the AC50 under setting [1] was 29.1 µM [rising, single point].
For `CCOC(=O)c1c(-c2ccccc2)oc2ccc(O)c(CN3CCN(C)CC3)c12`, the AC50 under setting [1] was 14.6 µM [falling, partial curve, poor fit].
As for `CC(NC(=O)COc1ccc(Br)cc1)C1CCCO1` (stereo unspecified), the AC50 under setting [1] is 5.01 µM [rising, full curve, poor fit].
With `COC(=O)c1ccc2nc(-c3cccc(N)c3)cn2c1`, the AC50 under setting [1] is 25.1 µM [falling, single point].
Consider `CN(C(=O)c1cccc(NC(=O)C2CCCN(C(=O)OC(C)(C)C)C2)c1)C1CCCC1` (stereo unspecified), for which the AC50 under setting [1] was 32.6 µM [falling, single point].
For `Clc1cnc(N/N=C/c2cccs2)c(Cl)c1`, the AC50 under setting [1] was 10 µM [falling, partial curve].
On to `O=c1[nH]c(=O)n(Cc2ccco2)c2c1C(C(F)(F)F)(C(F)(F)F)N=C(c1ccco1)N2`, for which the AC50 under setting [1] is 17.8 µM [rising, partial curve, poor fit].
On the same count and under the same terms, the same measure for `COc1ccccc1Nc1nc(NCCO)nc(N)c1[N+](=O)[O-]`: 1.26 µM [rising, full curve]; for `CCn1c(N)nc2ccccc21`: 28.2 µM [falling, single point].
Take `O=c1oc(-c2ccc([N+](=O)[O-])cc2)nc2ccccc12`: under setting [1], the AC50 is 1.41 µM [falling, full curve].
With `Cc1c(Cl)cccc1Nc1nc(N)nc(CN2CCCCCC2)n1`, under setting [1], the AC50 is 29.1 µM [falling, single point].
For the compound `Cc1ccc2c(c1)/C(=C/c1ccccc1F)C(=O)N2`, the AC50 under setting [1] was 35.5 µM [falling, single point].
On to `O=C(Cn1cc([N+](=O)[O-])cn1)Nc1ccn(Cc2c(F)c(F)cc(F)c2F)n1`, for which the AC50 under setting [1] is 18.4 µM [rising, single point].
`CCOC(=O)Cn1cnc2c(nnn2-c2cccc(OC)c2)c1=O`: the AC50 under setting [1] was 17.8 µM [rising, partial curve, poor fit].
Take `Cc1cccn2cc(-c3ccc(S(=O)(=O)N4CCOCC4)cc3)nc12`: the AC50 under setting [1] is 6.31 µM [rising, full curve].
`O=C(Nc1ccc(N2CCOCC2)cc1)C1CCCCN1S(=O)(=O)c1ccccc1` (stereo unspecified): the AC50 under setting [1] was 8.91 µM [rising, partial curve, poor fit].
As for `CCc1nnc2n1N=C(c1ccccc1)CS2`, the AC50 under setting [1] was 35.5 µM [falling, single point].
Turning to `Cn1c(=NC(=O)CCl)sc2ccccc21`, the AC50 under setting [1] was 25.1 µM [falling, single point].
Still for that read-out and setting: to `COc1ccc(S(=O)(=O)Nc2ccc(S(=O)(=O)N(C)C)cc2)cc1[N+](=O)[O-]` belongs 6.51 µM [falling, single point].
On to `O=C(CN1CCOCC1)NNc1c2ccccc2nc2ccccc12`, for which the AC50 under setting [2] is 35.5 µM [rising, partial curve, poor fit].
On to `Cc1ccccc1NC(=O)c1cccc(NC(=O)c2ccco2)c1`, for which the AC50 under setting [1] was 17.8 µM [falling, single point].
In the case of `Cc1nc(C)c(C(=O)N/N=C/c2cc(Br)ccc2O)s1`, the AC50 under setting [1] is 7.08 µM [falling, partial curve, poor fit].
For `Cn1ccc(C(=O)NC(=S)Nc2ccc([N+](=O)[O-])cc2O)n1`, under setting [1], the AC50 is 3.55 µM [falling, full curve].
In the case of `Cc1ccc(O)c(N/C=C/C(=O)c2ccc(F)cc2)c1`, the half-maximal activity concentration (AC50) under setting [1] was 15.8 µM [falling, single point].
With `CC(C)c1ccc(/C=N/NC(=O)c2ccccn2)cc1`, the AC50 under setting [1] is 7.94 µM [falling, partial curve].
`CC1=CC(=O)C(C(C)C)=C/C1=N/OS(=O)(=O)c1ccccc1`: the AC50 runs as follows: under setting [1], 20 µM [falling, single point]; under setting [2], 20 µM [rising, single point].
As to `O=[N+]([O-])c1cc(/C=N/Nc2nc(N3CCCCC3)nc(N3CCCCC3)n2)ccc1O`, the AC50 under setting [1] is 0.82 µM [falling, full curve, poor fit].
Same read-out and setting: to `CC(=O)N(C)c1ccc(NC(=O)C(Sc2ccccc2)c2ccccc2)cc1` (stereo unspecified) belongs 35.5 µM [rising, single point]; to `CSc1ccc(/C=C/C(=O)OCC(=O)NC2CCS(=O)(=O)C2)cc1` (stereo unspecified), 18.4 µM [rising, single point].
`COc1nc(NCCN2CCOCC2)nc(Nc2ccc([N+](=O)[O-])cc2)n1`: the AC50 under setting [1] was 32.6 µM [falling, single point].
With `Cc1ccc(C2=NN(CC(=O)NCCc3ccccc3)C(=O)CC2)cc1`, the AC50 under setting [1] is 1.26 µM [rising, full curve, poor fit].
With `CC(CCc1ccccc1)NC(=O)C(=O)c1c[nH]c2ccccc12` (stereo unspecified), the AC50 under setting [1] is 5.01 µM [falling, partial curve].
For the compound `Cc1c(Cl)cccc1NC(=S)N=Nc1c(O)n(CN2CCOCC2)c2ccccc12`, the AC50 under setting [2] is 5.8 µM [falling, full curve].

The record behind these values is PubChem BioAssay AID493014 (National Center for Advancing Translational Sciences (NCATS), 2011).
